Results as given in PubChem BioAssay AID493014 (National Center for Advancing Translational Sciences (NCATS), 2011).
This is one part of the list. These are further read-outs of the screen, such as a control signal, another cell line or another target. No call is given for them. Most of these compounds were active or inconclusive in the main read-out, so they are no random draw. Words in brackets tell the shape of the fitted curve; partial curves, single points and poor fits give uncertain potencies.

Experiment: qHTS Assay to Find Inhibitors of Chronic Active B-Cell Receptor Signaling
Conditions: ABC-DLBCL IkBa-CBG/CBR reporter, luminescence ratio (green luciferase fused to IkBa over red control in TMD8 lymphoma cells), 4 h
How it was run: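 TMD8 ABC-DLBCL cells carrying doxycycline-inducible green luciferase fused to IkappaBalpha plus unfused red luciferase were exposed to compounds (up to 46 uM) for 4 hrs at 37C. Activity came from the overlap-corrected green/red luminescence ratio.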

[1] = measured here: CBR red luminescence, cell number
[2] = measured here: IkBa-CBG green luminescence

For `O=C(CSc1ccccc1)Nc1nc2ccccc2[nH]1`, the AC50 [1] was 10.3 µM [falling, partial curve].
In the case of `CCS(=O)(=O)Nc1ccc(C2=NN(C(=O)c3ccco3)C(c3cccs3)C2)cc1` (centres undefined), the AC50 [1] is reported as 11.2 µM [falling, partial curve].
In the case of `Cc1cccc(C(=O)NC(=S)NNC(=O)COc2c(C)cccc2C)c1`, the AC50 [1] is reported as 5.8 µM [rising, partial curve, poor fit].
In the case of `O/N=C/c1ccc(-c2ccccc2OC(F)(F)F)o1`, the AC50 [1] is reported as 12.6 µM [rising, partial curve, poor fit].
With `C[n+]1cc[nH]c1SCC(=O)c1ccccc1` the AC50 [1] was 23.1 µM [falling, partial curve, poor fit].
With `CCOC(=O)c1c(NC(=O)C2=C(C)NC(=S)NC2c2ccccc2C(F)(F)F)sc(C)c1C` (centres undefined) the AC50 [1] was 16.4 µM [rising, partial curve].
In the case of `O=C(Nc1ccc2c(c1)OCCO2)c1ccc(Br)c(S(=O)(=O)N2CCOCC2)c1`, the AC50 [1] is reported as 6.31 µM [rising, partial curve, poor fit].
In the case of `CNC(=O)CC(CC(=O)c1ccccc1)c1ccccc1` (centres undefined), the AC50 [1] is reported as 3.66 µM [falling, partial curve, poor fit].
With `Cc1ccc(C(=O)Oc2ccc(Cl)c3cccnc23)cc1[N+](=O)[O-]` the AC50 [1] was 7.08 µM [rising, partial curve] and the AC50 [2] was 7.94 µM [falling, partial curve].
With `CN(C)S(=O)(=O)Oc1cccc(C(=O)Nc2ccccc2Cl)c1` the AC50 [1] was 22.4 µM [falling, single point].
In the case of `CC(=O)Nc1ccc(Nc2nc(C)c([N+](=O)[O-])c(Nc3ccc(NC(C)=O)cc3)n2)cc1`, the AC50 [1] is reported as 0.206 µM [falling, full curve].
For `CCC1CCCCN1CC(=O)c1c(C)[nH]c2ccc(OC)cc12` (centres undefined), the AC50 [1] was 3.16 µM [falling, single point].
For `Cc1ccc2nc(Nc3nc(CSc4nnc(C)s4)cc(=O)[nH]3)nc(C)c2c1`, the AC50 [1] was 2.51 µM [falling, full curve, poor fit].
In the case of `CCOc1ccc(C2N(c3cc(Cl)ccc3OC)C(=O)C3CCCN32)cc1OC` (centres undefined), the AC50 [1] is reported as 14.1 µM [rising, partial curve, poor fit].
For `C/C(=N\NC(=O)COc1ccc2ccccc2c1)c1cccs1`, the AC50 [1] was 22.4 µM [rising, single point].
For `COCCNS(=O)(=O)c1ccc(-c2ccc(S(=O)(=O)NCCOC)cc2)cc1`, the AC50 [1] was 5.62 µM [rising, partial curve, poor fit].
In the case of `N/C(=N\c1nc2ccccc2o1)NC(=O)c1ccccc1F`, the AC50 [1] is reported as 2.82 µM [falling, partial curve].
For `CC(C)N(C(=O)[C@H]1C[C@H](CC(=O)NCC23CC4CC(CC(C4)C2)C3)C(=O)N2CCc3c([nH]c4ccc(Cl)cc34)[C@]12C)C(C)C`, the AC50 [1] was 6.51 µM [rising, partial curve, poor fit].
With `COc1ccc(-c2nnc(SCC(=O)Nc3cc(F)ccc3C)o2)cc1` the AC50 [1] was 0.092 µM [falling, full curve, poor fit].
With `CCN(CC)CCN(C(=O)/C=C/c1cccs1)c1nc2ccc(F)cc2s1` the AC50 [1] was 12.6 µM [falling, single point].
With `C/C(CC(=O)Nc1ccc(Cl)c(Cl)c1)=N\NC(N)=S` the AC50 [1] was 5.62 µM [falling, partial curve, poor fit].
In the case of `CCC(C)c1ccc(OCc2ccc(C(=O)O)o2)cc1` (centres undefined), the AC50 [1] is reported as 10 µM [falling, partial curve, poor fit].
With `CN(CCCNC(=O)c1ccc(N2CCCC2=O)cc1)c1ccccc1` the AC50 [1] was 8.2 µM [rising, partial curve, poor fit].
With `COc1cccc(NC(=O)Nc2ccc3c(c2)OCO3)c1` the AC50 [1] was 10 µM [falling, partial curve].
For `CCOc1cc(/C=C2/NC(=O)N(CC(=O)OC)C2=O)ccc1OC`, the AC50 [1] was 5.01 µM [falling, partial curve, poor fit].
For `COc1cc2c(C(=O)N3CCN(c4cccc(C(F)(F)F)c4)CC3)cn(CC(C)C)c(=O)c2cc1OC`, the AC50 [1] was 11.2 µM [falling, partial curve, poor fit].
For `O=C(Nc1ccc2c(c1)N(S(=O)(=O)c1cccs1)CCC2)c1c(F)cccc1F`, the AC50 [1] was 20.6 µM [rising, partial curve, poor fit].
In the case of `COc1ccc(CCC(=O)OCC(=O)Nc2c(C)nn(-c3ccccc3)c2C)cc1`, the AC50 [1] is reported as 0.651 µM [rising, full curve, poor fit].
In the case of `COc1cccc(Nc2nc(C)nc3c2oc2ccccc23)c1`, the AC50 [1] is reported as 1.58 µM [falling, full curve, poor fit].
With `CC(=O)Nc1ccc(NC(=O)C(C)OC(=O)C2(c3ccc(Cl)cc3)CCCC2)cc1` (centres undefined) the AC50 [1] was 0.58 µM [rising, full curve, poor fit].
For `COCCCn1c(-c2ccccc2Cl)n[nH]c1=S`, the AC50 [1] was 2.91 µM [rising, partial curve, poor fit].
With `Cc1nc2c(ccc3c([N+](=O)[O-])cccc32)c(C)c1C` the AC50 [1] was 25.1 µM [falling, partial curve, poor fit].
In the case of `Cc1ccc(C(=O)Nc2ccc(Cl)cn2)cc1`, the AC50 [1] is reported as 10 µM [falling, partial curve, poor fit].
With `Cc1ccc(/C=C/C(=O)O)cc1S(=O)(=O)Nc1ccc(C(=O)O)cc1` the AC50 [1] was 0.1 µM [rising, full curve, poor fit].
For `COc1ccc(-c2csc(NC(=O)c3ccccc3NS(=O)(=O)c3ccc(C)cc3)n2)cc1`, the AC50 [1] was 29.1 µM [falling, single point].
With `O=C1C=CC(=O)N1CCNc1ncc(C(F)(F)F)cc1Cl` the AC50 [1] was 5.01 µM [falling, full curve] and the AC50 [2] was 35.5 µM [rising, single point].
For `O=C(NCc1cccnc1)c1cccc(S(=O)(=O)Nc2cccc(Cl)c2)c1`, the AC50 [1] was 18.4 µM [falling, single point].
In the case of `O=C(Nc1ccccc1F)c1cc2nc(C(F)F)cc(C(F)F)n2n1`, the AC50 [1] is reported as 23.1 µM [falling, single point].
In the case of `CCN(CC)C(=O)[C@H]1C[C@H](CC(=O)NCCCN(C)C)C(=O)N2CCc3c([nH]c4ccc(Cl)cc34)[C@]12C`, the AC50 [1] is reported as 9.2 µM [falling, partial curve, poor fit].
With `C[C@H](CO)N1C[C@H](C)[C@@H](CN(C)Cc2ccc(C(=O)O)cc2)Oc2ccc(NS(C)(=O)=O)cc2C1=O` the AC50 [1] was 20.6 µM [rising, partial curve].
For `N/C(=N\OC(=O)c1cc(-c2ccccc2)nc2ccccc12)c1ccc(Cl)cc1`, the AC50 [1] was 3.16 µM [rising, partial curve, poor fit].
In the case of `COc1ccc(NC2=CC(=O)CC(c3ccccc3)C2)c(OC)c1` (centres undefined), the AC50 [1] is reported as 35.5 µM [falling, single point] and the AC50 [2] is reported as 15.8 µM [falling, single point].
For `CC(C(=O)NC1C=CS(=O)(=O)C1)N1C(=O)/C(=C\c2ccccc2)SC1=S` (centres undefined), the AC50 [1] was 7.08 µM [falling, partial curve].
For `CC1CCCN(C(=O)c2ccncc2)C1` (centres undefined), the AC50 [1] was 1.84 µM [rising, full curve, poor fit].
For `COc1ccc(NS(=O)(=O)c2c(F)cc(F)c(Cl)c2F)cc1S(=O)(=O)N1CCCCC1`, the AC50 [1] was 9.2 µM [falling, partial curve, poor fit].
With `CCOC(=O)c1cnc(SC)nc1Sc1ccccc1Cl` the AC50 [1] was 18.4 µM [rising, single point].
In the case of `COC(=O)C1=C(C)NC(=S)NC1c1ccc(OC(=O)c2ccco2)cc1` (centres undefined), the AC50 [1] is reported as 35.5 µM [rising, single point].
With `O=C(c1ccc2c(c1)OCO2)N(Cc1ccco1)C1(C(=O)NC2CCCCC2)CCCCC1` the AC50 [1] was 32.6 µM [falling, single point].
In the case of `Cc1ccccc1C(=O)NNC(=O)/C=C\C(=O)O`, the AC50 [1] is reported as 3.16 µM [falling, full curve].
With `COc1ccccc1NC(=O)CSc1nnc(-c2ccccn2)o1` the AC50 [1] was 2 µM [falling, full curve, poor fit].
With `COc1ccc2occ(C(=O)c3coc4ccc(O)c(CN(C)C)c34)c2c1` the AC50 [1] was 7.08 µM [falling, partial curve].
In the case of `COc1cc(-c2nc(-c3ccccn3)no2)cc(OC)c1OC`, the AC50 [1] is reported as 17.8 µM [falling, single point].
For `Cc1ccc(NC(=O)NC(=O)N(C(C)C)S(=O)(=O)c2ccc(C)cc2)cc1`, the AC50 [1] was 20 µM [rising, single point].
With `CC1=C(C(=O)OCC(Cl)(Cl)Cl)N2C(=O)C(NC(=O)Cc3ccccc3)C2SC1` (centres undefined) the AC50 [1] was 11.2 µM [falling, partial curve].
In the case of `Cc1ccc(NC(=O)CN(C)C(=O)COC(=O)[C@@H](NC(=O)c2ccccc2F)C(C)C)cc1`, the AC50 [1] is reported as 8.2 µM [rising, partial curve].
In the case of `COc1cc(OC)c2c(-c3cccc(-c4sccc4C(C)=O)c3)cc(=O)oc2c1`, the AC50 [1] is reported as 18.4 µM [rising, partial curve] and the AC50 [2] is reported as 20.6 µM [falling, partial curve].
For `O=C1NCCc2c1[nH]c1c(Cl)ccc(Cl)c21`, the AC50 [1] was 8.91 µM [falling, partial curve].
With `COc1ccc(C(=O)O)cc1S(=O)(=O)Nc1cccc(C)c1` the AC50 [1] was 0.164 µM [falling, full curve, poor fit].
With `Cc1ccc(-c2cn(-c3ccccc3)c(SCC(=O)NC3CCS(=O)(=O)C3)n2)cc1C` (centres undefined) the AC50 [1] was 4.11 µM [rising, partial curve, poor fit].
With `COc1cccc(-c2noc(-c3cccs3)n2)c1` the AC50 [1] was 1.46 µM [rising, partial curve, poor fit].
